Test results taken from patent publication US20170209447A1, “Use of PNP Inhibitor to Treat Relapse of Malignancy after Hematopoietic Stem Cell Transplant” (Nitor Therapeutics, priority 2014, published 2017).
Some results were stated once for a whole list of compounds, not compound by compound.

System: L. monocytogenes (ATCC Strain35152, hemolytic substrain)
Details: 30 mg/kg PO or IP, or 2 mg/kg drinking water; 1×10^6 CFU i.v.; FIGS. 8 and 10

Structure (SMILES) | protection of the animals (survival)
O=c1[nH]cnc2c(CN3C[C@H](CO)[C@@H](O)C3)c[nH]c12 [NTR002, 1,5-dihydro-7-[[(3R,4R)-3-hydroxy-4-(hydroxymethyl)pyrrolidin-1-yl]methyl]-4H-pyrrolo[3,2-d]pyrimidin-4-one] | 10-20%
O=c1[nH]cnc2c([C@@H]3N[C@H](CO)[C@@H](O)[C@H]3O)c[nH]c12 [NTR001, 7-[(2S,3S,4R,5R)-3,4-dihydroxy-5-(hydroxymethyl)-2-pyrrolidinyl]-1,5-dihyro-4-H-pyrrolo-[3,2-d]pyrimidin-4-one] | 10-20%
